Patent publication US20110124560A1 (University of Pennsylvania, published 2011)
No constants are given. Whether binding was seen depends on the method and setting. In cells and extracts the contact can be indirect. Some entries that bind do so weakly or less than the wild type.

By UniProt entry, the sequences of proteins in these tests, tags left out.
UniProt Q9BZS1: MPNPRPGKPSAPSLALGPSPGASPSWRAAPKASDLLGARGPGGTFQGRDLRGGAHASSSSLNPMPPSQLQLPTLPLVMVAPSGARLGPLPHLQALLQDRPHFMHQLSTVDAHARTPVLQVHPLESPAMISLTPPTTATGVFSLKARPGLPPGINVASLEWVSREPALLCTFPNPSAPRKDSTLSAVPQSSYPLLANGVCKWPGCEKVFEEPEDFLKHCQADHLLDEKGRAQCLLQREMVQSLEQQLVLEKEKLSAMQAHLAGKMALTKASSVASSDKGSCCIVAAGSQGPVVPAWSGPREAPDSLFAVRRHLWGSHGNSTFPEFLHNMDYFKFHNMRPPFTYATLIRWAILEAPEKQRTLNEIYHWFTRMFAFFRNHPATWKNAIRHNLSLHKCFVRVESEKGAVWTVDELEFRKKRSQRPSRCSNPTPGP

T1: endogenous FOXP1 (human) (UniProt Q9H334)
T1 sequence (looked up): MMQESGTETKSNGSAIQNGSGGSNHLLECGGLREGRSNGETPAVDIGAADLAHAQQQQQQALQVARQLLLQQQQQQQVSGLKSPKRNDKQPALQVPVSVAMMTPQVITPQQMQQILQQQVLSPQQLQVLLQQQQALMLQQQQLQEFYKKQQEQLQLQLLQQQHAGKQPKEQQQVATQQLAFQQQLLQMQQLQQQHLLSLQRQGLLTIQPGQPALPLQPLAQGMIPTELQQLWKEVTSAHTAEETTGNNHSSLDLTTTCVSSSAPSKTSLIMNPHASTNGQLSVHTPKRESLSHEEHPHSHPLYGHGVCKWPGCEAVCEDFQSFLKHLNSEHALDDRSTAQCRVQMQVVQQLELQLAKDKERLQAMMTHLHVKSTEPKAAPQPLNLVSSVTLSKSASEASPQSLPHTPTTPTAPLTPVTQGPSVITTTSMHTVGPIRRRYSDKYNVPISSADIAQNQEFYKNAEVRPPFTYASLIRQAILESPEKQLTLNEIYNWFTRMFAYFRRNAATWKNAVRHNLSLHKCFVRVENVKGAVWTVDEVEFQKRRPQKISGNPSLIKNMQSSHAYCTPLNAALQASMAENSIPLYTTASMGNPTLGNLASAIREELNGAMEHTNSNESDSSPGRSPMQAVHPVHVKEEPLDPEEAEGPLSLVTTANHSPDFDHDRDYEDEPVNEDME


Columns and labels:
endogenous FOXP1 (human) [1] = target: T1, endogenous FOXP1 (human); experiment: immunoblot of co-immunoprecipitate (FIG. 4D legend)
endogenous FOXP1 (human) [2] = target: T1, endogenous FOXP1 (human); experiment: endogenous co-immunoprecipitation with anti-FOXP1 JC12, immunoblot with anti-FOXP3 221D, normal control human T cell line
[3] = target: endogenous wild type FOXP3 (human) (UniProt Q9BZS1); experiment: endogenous co-immunoprecipitation, human CD4+CD25+ T cells
[4] = target: FOXP3 expressed in transfected Jurkat E6.1 T cells (human) (UniProt Q9BZS1); experiment: co-immunoprecipitation, FOXP3 transfected Jurkat E6.1 T cells

| Molecule | binding (endogenous FOXP1 (human) [1]) | binding (endogenous FOXP1 (human) [2]) | binding [3] | binding [4] |
| --- | --- | --- | --- | --- |
| endogenous wild type FOXP3 (from UniProt Q9BZS1 1-431) | binds | binds |  |  |
| endogenous FOXP1 (protein, human, UniProt Q9H334 1-677, looked up) MMQESGTETKSNGSAIQNGSGGSNHLLECGGLREGRSNGETPAVDIGAADLAHAQQQQQQALQVARQLLLQQQQQQQVSGLKSPKRNDKQPALQVPVSVAMMTPQVITPQQMQQILQQQVLSPQQLQVLLQQQQALMLQQQQLQEFYKKQQEQLQLQLLQQQHAGKQPKEQQQVATQQLAFQQQLLQMQQLQQQHLLSLQRQGLLTIQPGQPALPLQPLAQGMIPTELQQLWKEVTSAHTAEETTGNNHSSLDLTTTCVSSSAPSKTSLIMNPHASTNGQLSVHTPKRESLSHEEHPHSHPLYGHGVCKWPGCEAVCEDFQSFLKHLNSEHALDDRSTAQCRVQMQVVQQLELQLAKDKERLQAMMTHLHVKSTEPKAAPQPLNLVSSVTLSKSASEASPQSLPHTPTTPTAPLTPVTQGPSVITTTSMHTVGPIRRRYSDKYNVPISSADIAQNQEFYKNAEVRPPFTYASLIRQAILESPEKQLTLNEIYNWFTRMFAYFRRNAATWKNAVRHNLSLHKCFVRVENVKGAVWTVDEVEFQKRRPQKISGNPSLIKNMQSSHAYCTPLNAALQASMAENSIPLYTTASMGNPTLGNLASAIREELNGAMEHTNSNESDSSPGRSPMQAVHPVHVKEEPLDPEEAEGPLSLVTTANHSPDFDHDRDYEDEPVNEDME |  |  | binds | binds |
